Consider 3 molecules from paper PMC3958891.

Amino acid sequences for entries named in this document (tags omitted). A change or cut given only in a name is not applied to a line headed by its entry. Chains listed by the source or under a name are the forms on record and can include a tag or linker. Residues count along the entry.
UniProt P08588: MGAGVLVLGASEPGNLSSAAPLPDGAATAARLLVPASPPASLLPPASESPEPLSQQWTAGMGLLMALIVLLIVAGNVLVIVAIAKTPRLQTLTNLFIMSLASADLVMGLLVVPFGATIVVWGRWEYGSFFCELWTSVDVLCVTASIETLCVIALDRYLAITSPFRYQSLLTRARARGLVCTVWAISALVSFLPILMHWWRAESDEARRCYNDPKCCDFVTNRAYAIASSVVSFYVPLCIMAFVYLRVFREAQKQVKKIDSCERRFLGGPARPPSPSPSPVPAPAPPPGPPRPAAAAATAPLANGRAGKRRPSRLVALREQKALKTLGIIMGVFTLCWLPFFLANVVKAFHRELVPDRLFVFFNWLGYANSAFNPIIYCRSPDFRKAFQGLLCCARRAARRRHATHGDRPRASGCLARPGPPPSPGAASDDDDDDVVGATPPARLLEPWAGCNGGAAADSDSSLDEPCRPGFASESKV
GST-β1AR L3 (third intracellular loop, residues 249 to 325): residues 249-325 of P08588
GST-β1AR L3 C-terminus (residues 288 to 325): residues 288-325 of P08588
GST-β1AR L3-CT/3A (residues 288 to 325 with K308RR310 changed to AAA) (P08588, form named): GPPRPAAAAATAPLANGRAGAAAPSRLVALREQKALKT

The target in one assay is T1, GST-golgin-160(1-393) (UniProt Q08378).
T1 sequence: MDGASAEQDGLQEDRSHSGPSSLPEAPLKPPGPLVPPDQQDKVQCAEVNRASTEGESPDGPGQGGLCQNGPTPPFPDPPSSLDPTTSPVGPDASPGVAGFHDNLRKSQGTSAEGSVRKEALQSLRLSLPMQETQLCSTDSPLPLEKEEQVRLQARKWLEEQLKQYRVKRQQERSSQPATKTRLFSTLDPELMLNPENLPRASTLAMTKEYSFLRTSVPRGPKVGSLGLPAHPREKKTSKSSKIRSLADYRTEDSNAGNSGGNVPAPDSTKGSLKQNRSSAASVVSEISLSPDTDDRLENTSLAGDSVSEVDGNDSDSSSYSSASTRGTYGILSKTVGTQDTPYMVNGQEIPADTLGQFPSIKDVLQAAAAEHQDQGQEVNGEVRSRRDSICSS
The experiment in a line: pull-down; 10 μg GST-golgin-160(1-393) pre-conjugated to glutathione-Sepharose 4B beads; detergent lysate of transfected HeLa cells (125 mM potassium acetate, 25 mM HEPES pH 7.1, 1 mM DTT, 1% NP-40), 2 h at 4 °C; anti-FLAG immunoblot, normalised to input; only the target purified.

Assay [1] deals with GST-β1AR L3 (third intracellular loop, residues 249 to 325) (human) (UniProt P08588). The experiment in a line: pull-down; purified GST-β1AR L3 (5 μg) pre-bound to glutathione-Sepharose 4B beads; purified untagged golgin-160(1-393) added in elution buffer (20 mM HEPES pH 8.5, 500 mM NaCl, 1 mM EDTA, 50 mM DTT), 4-6 h at 4 °C; Coomassie blue staining after SDS-PAGE; both purified.

The target in assay [2] is GST-β1AR L3-CT/3A (residues 288 to 325 with K308RR310 changed to AAA) (human) (UniProt P08588). The assay is described as follows: pull-down; purified GST fusions (3 μg) pre-bound to glutathione-Sepharose beads; IVTT [35S]-labeled golgin-160(1-393) in 25 mM HEPES, 125 mM KOAc, 5 mM EDTA, 0.5% NP-40, 1 mM DTT, 2 h at 4 °C; phosphorimaging after SDS-PAGE; only the target purified.

For assay [3], the target named is GST-β1AR L3 C-terminus (residues 288 to 325) (human) (UniProt P08588). The description is as above.

Results are given in words; binding and its absence hold for the method and conditions named. For some of these results: Binding seen in cells or lysates may run through a third protein. Some results given as binding are weak or reduced against the parent protein; the word gives no strength. For some of these results: Where a sequence is shown, tags or fusion partners need not be part of it.

As to “full-length FLAG-tagged β1AR WT (from UniProt P08588 1-477) (receptor)”, the binding entry with GST-golgin-160(1-393) is reported as “binds”.

B1: untagged, purified golgin-160(1-393) head domain (domain or fragment, UniProt Q08378 1-393)
chain: T1 sequence
As to B1, the binding result in assay [1] was “binds”.

B2: in vitro transcribed and translated [35S]-labeled golgin-160(1-393) (domain or fragment, UniProt Q08378 1-393)
chain: T1 sequence
modifications: [35S]-labeled
B2: the binding result was “no binding” in assay [2] and “binds” in assay [3].
